Publication PMC7862700
Only a part is listed here, and it is no random draw. At the low end of the ranking the order means little.

Amino acid sequences for entries named in this document (tags omitted). A change or cut given only in a name is not applied to a line headed by its entry.
UniProt Q9Y603: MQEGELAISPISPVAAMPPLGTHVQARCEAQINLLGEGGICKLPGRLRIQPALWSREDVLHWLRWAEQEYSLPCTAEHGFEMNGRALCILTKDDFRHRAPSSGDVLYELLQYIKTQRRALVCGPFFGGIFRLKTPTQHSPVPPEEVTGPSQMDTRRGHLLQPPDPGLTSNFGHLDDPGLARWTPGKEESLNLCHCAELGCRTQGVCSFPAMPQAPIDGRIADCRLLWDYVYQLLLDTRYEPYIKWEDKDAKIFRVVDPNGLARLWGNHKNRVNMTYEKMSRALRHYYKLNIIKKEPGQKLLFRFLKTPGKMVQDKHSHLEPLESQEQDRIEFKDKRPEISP
UniProt P41212: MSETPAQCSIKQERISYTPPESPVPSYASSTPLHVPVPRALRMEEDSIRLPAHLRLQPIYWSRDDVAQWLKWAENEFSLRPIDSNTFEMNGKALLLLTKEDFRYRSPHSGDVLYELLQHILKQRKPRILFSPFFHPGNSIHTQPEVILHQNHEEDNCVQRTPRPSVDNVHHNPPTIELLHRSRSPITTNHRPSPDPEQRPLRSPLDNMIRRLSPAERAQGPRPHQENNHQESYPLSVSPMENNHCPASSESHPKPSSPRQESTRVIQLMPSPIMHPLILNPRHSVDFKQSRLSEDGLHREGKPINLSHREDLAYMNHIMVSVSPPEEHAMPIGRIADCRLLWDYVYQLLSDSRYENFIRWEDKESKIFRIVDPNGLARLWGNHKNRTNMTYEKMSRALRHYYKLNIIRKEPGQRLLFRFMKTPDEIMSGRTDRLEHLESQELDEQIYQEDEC

The sequences below were run against ETV7 (UniProt Q9Y603) (assay: DAPPL (digital affinity profiling via proximity ligation, sequencing)). Conditions: 10 mM Tris-HCl pH 7.5, 50 mM NaCl, 1 mM DTT, 4% glycerol, room temperature, 30 min; GST-TFs on glutathione beads, 16-mer random dsDNA library, 0.1% …; high values mean tight binding; double strand, one strand shown; scale: fold enrichment (6-mer frequency, TF over GST control).
For AGGGAG, the binding signal was 0.37. Work on AGTCAT yielded a binding signal of 0.646. Sequence GGCACG has a binding signal of 0.858. CATCGG was tested, and the binding signal was 0.684. In the case of ATCGGG, the binding signal is reported as 0.517. For GAGTGA, the binding signal was 0.458. GACCAC was tested, and the binding signal was 0.751. GTGGAG was tested, and the binding signal was 0.407. For CATGTC, the binding signal was 0.796. In the case of ATCAGT, the binding signal is reported as 0.874. Sequence GACGTC has a binding signal of 0.802. For GGTTAG, the binding signal was 0.798. GACAAG gave a binding signal of 0.762. For GAGTTA, the binding signal was 0.655. For GAGATA, the binding signal was 0.674. AGCGTA showed a binding signal of 0.864. GGGGTA was tested, and the binding signal was 0.87. GGGGTG was tested, and the binding signal was 0.682. GGTAAG showed a binding signal of 0.787. AGGACA showed a binding signal of 0.955. Sequence AGTTAG has a binding signal of 0.901. With GCCAGT the binding signal was 0.361. For CGGGTC, the binding signal was 0.718. In the case of TCGGTA, the binding signal is reported as 0.581. Work on GTAAGG yielded a binding signal of 0.752. With CCAAGG the binding signal was 0.83. In the case of CTGAGA, the binding signal is reported as 0.778. GGGGAT showed a binding signal of 0.628. Sequence GTGTGC has a binding signal of 0.859. Sequence TGGGGC has a binding signal of 0.708. In the case of CAGGTA, the binding signal is reported as 0.74. With CCATCG the binding signal was 0.848. With GCGGCC the binding signal was 0.824. Work on CAACGT yielded a binding signal of 0.819. Sequence CCAGTC has a binding signal of 0.358. CGTGGA was tested, and the binding signal was 0.539. Work on CGTGCG yielded a binding signal of 0.64. With GGCGAC the binding signal was 0.755. For GGTCGA, the binding signal was 0.809.

These sequences were tested against ETV6 (UniProt P41212) in the same assay as above. Conditions: 10 mM Tris-HCl pH 7.5, 50 mM NaCl, 1 mM DTT, 4% glycerol, room temperature, 30 min; GST-TFs on glutathione beads, 16-mer random dsDNA library, 0.1% …; high values mean tight binding; double strand, one strand shown; scale: fold enrichment (6-mer frequency, TF over GST control).
Work on AGGGAG yielded a binding signal of 0.376. Sequence AGTCAT has a binding signal of 0.582. Sequence GGCACG has a binding signal of 0.831. Sequence CATCGG has a binding signal of 0.651. Sequence ATCGGG has a binding signal of 0.416. With GAGTGA the binding signal was 0.409. With GACCAC the binding signal was 0.914. GTGGAG showed a binding signal of 0.412. For CATGTC, the binding signal was 0.82. With ATCAGT the binding signal was 0.825. Work on GACGTC yielded a binding signal of 0.809. Sequence GGTTAG has a binding signal of 0.788. GACAAG gave a binding signal of 0.835. GAGTTA showed a binding signal of 0.588. GAGATA was tested, and the binding signal was 0.656. Work on AGCGTA yielded a binding signal of 0.892. GGGGTA showed a binding signal of 0.675. In the case of GGGGTG, the binding signal is reported as 0.71. Work on GGTAAG yielded a binding signal of 0.727. Work on AGGACA yielded a binding signal of 0.879. For AGTTAG, the binding signal was 0.832. Work on GCCAGT yielded a binding signal of 0.321. CGGGTC gave a binding signal of 0.704. In the case of TCGGTA, the binding signal is reported as 0.532. GTAAGG showed a binding signal of 0.763. In the case of CCAAGG, the binding signal is reported as 0.895. For CTGAGA, the binding signal was 0.697. Sequence GGGGAT has a binding signal of 0.641. With GTGTGC the binding signal was 0.867. With TGGGGC the binding signal was 0.857. CAGGTA showed a binding signal of 0.814. CCATCG was tested, and the binding signal was 0.782. GCGGCC gave a binding signal of 0.75. With CAACGT the binding signal was 0.908. Work on CCAGTC yielded a binding signal of 0.259. CGTGGA gave a binding signal of 0.529. CGTGCG gave a binding signal of 0.676. GGCGAC showed a binding signal of 0.831. GGTCGA gave a binding signal of 0.715.
